Patent publication US12180169B1, “4-[4,4-bis(4-bromophenyl)-5-oxo-2-thioxoimidazolidin-1-yl]butanoic acid as an antimicrobial compound” (KING FAISAL UNIVERSITY, priority 2023, dated 2024)
At least one compound was matched to its structure with a doubt left.

Columns and labels:
Assay type in all cases: cell-based
Staphylococcus aereus = test: Antimicrobial testing by agar dilution, Staphylococcus aereus; details: St. Aereus
Protocol: (§1) The antimicrobial properties of the 4-[4,4-bis(4-bromophenyl)-2,5-dioxoimidazolidin-1-yl]butanoic acid were studied by the method of agar dilution. Test solutions of each compound was prepared in concentration of 1% using dimethylformamide as a solvent then they are diluted in physiological solution to obtain the final experimental dilutions 1:100, 1:200, 1:400, 1:800. The effect of these substances are compared with furacillin in a controlable study. The testing microbes used were gram positive bacteria Staphylococcus aereus, gram negative bacteria Escherichia coli, Pseudomonas aeruginosa and Candida albicans fungi were taken. The experiments used for this survey were meat-pentonlu agar (EPA) for cultivation of bacteria and Saburo environment for fungi. Each experiment used 1 ml of test solution on each plate 500 min. Add 2 drops of emulsified with microbes feel. All experimental samples were taken from the agar after 10, 20, 40, 60 minutes in the environment on the basis of Patrk planted. Bacteria were cultivated at a temperature of 37° C. for 1 day and the mushroom was kept in a thermostat for […] at a temperature of 28° C. in the. Then results were checked.

Pseudomonas aeruginosa = test: Antimicrobial testing by agar dilution, Pseudomonas aeruginosa; details: Ps. aeruginosa
Protocol: as §1

Candida albicans = test: Antimicrobial testing by agar dilution, Candida albicans fungi
Protocol: as §1

Escherichia coli = test: Antimicrobial testing by agar dilution, Escherichia coli; details: E. Coli
Protocol: as §1

[1] = dilution rate 1:100, exposure time 10 min
[2] = dilution rate 1:100, exposure time 20 min
[3] = dilution rate 1:100, exposure time 40 min
[4] = dilution rate 1:100, exposure time 60 min
[5] = dilution rate 1:200, exposure time 10 min
[6] = dilution rate 1:200, exposure time 20 min
[7] = dilution rate 1:200, exposure time 40 min
[8] = dilution rate 1:200, exposure time 60 min
[9] = dilution rate 1:400, exposure time 10 min
[10] = dilution rate 1:400, exposure time 20 min
[11] = dilution rate 1:400, exposure time 40 min
[12] = dilution rate 1:400, exposure time 60 min
[13] = dilution rate 1:800, exposure time 10 min
[14] = dilution rate 1:800, exposure time 20 min
[15] = dilution rate 1:800, exposure time 40 min
[16] = dilution rate 1:800, exposure time 60 min

**Q.** What does the source list for `NC(=O)N/N=C/c1ccc([N+](=O)[O-])o1` [Furacilin]?
**A.** antimicrobial activity (Staphylococcus aereus; [1]): −; antimicrobial activity (Staphylococcus aereus; [2]): −; antimicrobial activity (Staphylococcus aereus; [3]): −; antimicrobial activity (Staphylococcus aereus; [4]): −; antimicrobial activity (Staphylococcus aereus; [5]): +; antimicrobial activity (Staphylococcus aereus; [6]): +; antimicrobial activity (Staphylococcus aereus; [7]): +; antimicrobial activity (Staphylococcus aereus; [8]): +; antimicrobial activity (Staphylococcus aereus; [9]): +; antimicrobial activity (Staphylococcus aereus; [10]): +; antimicrobial activity (Staphylococcus aereus; [11]): +; antimicrobial activity (Staphylococcus aereus; [12]): +; antimicrobial activity (Staphylococcus aereus; [13]): +; antimicrobial activity (Staphylococcus aereus; [14]): +; antimicrobial activity (Staphylococcus aereus; [15]): +; antimicrobial activity (Staphylococcus aereus; [16]): +; antimicrobial activity (Pseudomonas aeruginosa; [1]): +; antimicrobial activity (Pseudomonas aeruginosa; [2]): +; antimicrobial activity (Pseudomonas aeruginosa; [3]): +; antimicrobial activity (Pseudomonas aeruginosa; [4]): +; antimicrobial activity (Pseudomonas aeruginosa; [5]): +; antimicrobial activity (Pseudomonas aeruginosa; [6]): +; antimicrobial activity (Pseudomonas aeruginosa; [7]): +; antimicrobial activity (Pseudomonas aeruginosa; [8]): +; antimicrobial activity (Pseudomonas aeruginosa; [9]): +; antimicrobial activity (Pseudomonas aeruginosa; [10]): +; antimicrobial activity (Pseudomonas aeruginosa; [11]): +; antimicrobial activity (Pseudomonas aeruginosa; [12]): +; antimicrobial activity (Pseudomonas aeruginosa; [13]): +; antimicrobial activity (Pseudomonas aeruginosa; [14]): +; antimicrobial activity (Pseudomonas aeruginosa; [15]): +; antimicrobial activity (Pseudomonas aeruginosa; [16]): +; antimicrobial activity (Candida albicans; [1]): −; antimicrobial activity (Candida albicans; [2]): −; antimicrobial activity (Candida albicans; [3]): +; antimicrobial activity (Candida albicans; [4]): +; antimicrobial activity (Candida albicans; [5]): +; antimicrobial activity (Candida albicans; [6]): +; antimicrobial activity (Candida albicans; [7]): +; antimicrobial activity (Candida albicans; [8]): +; antimicrobial activity (Candida albicans; [9]): +; antimicrobial activity (Candida albicans; [10]): +; antimicrobial activity (Candida albicans; [11]): +; antimicrobial activity (Candida albicans; [12]): +; antimicrobial activity (Candida albicans; [13]): +; antimicrobial activity (Candida albicans; [14]): +; antimicrobial activity (Candida albicans; [15]): +; antimicrobial activity (Candida albicans; [16]): +; antimicrobial activity (Escherichia coli; [1]): −; antimicrobial activity (Escherichia coli; [2]): −; antimicrobial activity (Escherichia coli; [3]): −; antimicrobial activity (Escherichia coli; [4]): −; antimicrobial activity (Escherichia coli; [5]): +; antimicrobial activity (Escherichia coli; [6]): +; antimicrobial activity (Escherichia coli; [7]): +; antimicrobial activity (Escherichia coli; [8]): +; antimicrobial activity (Escherichia coli; [9]): +; antimicrobial activity (Escherichia coli; [10]): +; antimicrobial activity (Escherichia coli; [11]): +; antimicrobial activity (Escherichia coli; [12]): +; antimicrobial activity (Escherichia coli; [13]): +; antimicrobial activity (Escherichia coli; [14]): +; antimicrobial activity (Escherichia coli; [15]): +; antimicrobial activity (Escherichia coli; [16]): +
